Paper PMC6944706
Results are given in words; binding and its absence hold for the method and conditions named. Binding seen in cells or lysates may run through a third protein. Some binding calls cover weakened binding; strength is not graded here. For some assays here: Where a sequence is shown, tags or fusion partners need not be part of it.

The chains behind the UniProt entries cited, without tags or fusion partners.
UniProt P54646: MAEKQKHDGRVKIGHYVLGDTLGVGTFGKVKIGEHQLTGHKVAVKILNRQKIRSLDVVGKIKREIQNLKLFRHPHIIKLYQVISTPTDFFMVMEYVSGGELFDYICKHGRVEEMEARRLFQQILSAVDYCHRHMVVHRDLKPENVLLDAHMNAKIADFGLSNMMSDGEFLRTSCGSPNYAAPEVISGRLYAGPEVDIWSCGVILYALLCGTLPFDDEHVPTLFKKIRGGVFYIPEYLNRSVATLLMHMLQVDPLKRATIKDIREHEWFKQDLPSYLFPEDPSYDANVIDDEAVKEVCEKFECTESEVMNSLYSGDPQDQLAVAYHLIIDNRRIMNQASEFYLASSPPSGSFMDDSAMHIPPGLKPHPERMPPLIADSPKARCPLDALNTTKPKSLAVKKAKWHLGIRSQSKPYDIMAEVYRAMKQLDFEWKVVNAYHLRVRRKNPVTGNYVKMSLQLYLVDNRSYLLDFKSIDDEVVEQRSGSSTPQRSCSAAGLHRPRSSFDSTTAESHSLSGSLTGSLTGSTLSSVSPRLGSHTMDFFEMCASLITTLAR

Columns and labels:
[1] = molecular target: AMP-activated protein kinase catalytic subunit alpha-2 (AMPKα2), endogenous in MDA-MB-231 cells (human (endogenous in MDA-MB-231)) (UniProt P54646); experiment: co-IP; endogenous proteins; MDA-MB-231 cells lysed in RIPA buffer with PMSF; lysate incubated with IgG, anti-UBE2O or anti-AMPKα2 antibodies at 4 °C overnight, beads 4 h, washed with TBS with PMSF; western blot
[2] = molecular target: MYC-tagged AMPKα2 (UniProt P54646); experiment: co-IP; MCF-7 cells transfected with Flag-tagged UBE2O and MYC-tagged AMPKα2 plasmids, alone or together, lysed after 48 h; immunoprecipitated with MYC-tag antibodies; western blot with anti-UBE2O or anti-AMPKα2 antibodies

Binder | binding [1] | binding [2]
Ubiquitin-conjugating enzyme E2O (UBE2O), endogenous in MDA-MB-231 cells (enzyme, UniProt Q9C0C9 1-1292) MADPAAPTPAAPAPAQAPAPAPEAVPAPAAAPVPAPAPASDSASGPSSDSGPEAGSQRLLFSHDLVSGRYRGSVHFGLVRLIHGEDSDSEGEEEGRGSSGCSEAGGAGHEEGRASPLRRGYVRVQWYPEGVKQHVKETKLKLEDRSVVPRDVVRHMRSTDSQCGTVIDVNIDCAVKLIGTNCIIYPVNSKDLQHIWPFMYGDYIAYDCWLGKVYDLKNQIILKLSNGARCSMNTEDGAKLYDVCPHVSDSGLFFDDSYGFYPGQVLIGPAKIFSSVQWLSGVKPVLSTKSKFRVVVEEVQVVELKVTWITKSFCPGGTDSVSPPPSVITQENLGRVKRLGCFDHAQRQLGERCLYVFPAKVEPAKIAWECPEKNCAQGEGSMAKKVKRLLKKQVVRIMSCSPDTQCSRDHSMEDPDKKGESKTKSEAESASPEETPDGSASPVEMQDEGAEEPHEAGEQLPPFLLKEGRDDRLHSAEQDADDEAADDTDDTSSVTSSASSTTSSQSGSGTSRKKSIPLSIKNLKRKHKRKKNKITRDFKPGDRVAVEVVTTMTSADVMWQDGSVECNIRSNDLFPVHHLDNNEFCPGDFVVDKRVQSCPDPAVYGVVQSGDHIGRTCMVKWFKLRPSGDDVELIGEEEDVSVYDIADHPDFRFRTTDIVIRIGNTEDGAPHKEDEPSVGQVARVDVSSKVEVVWADNSKTIILPQHLYNIESEIEESDYDSVEGSTSGASSDEWEDDSDSWETDNGLVEDEHPKIEEPPIPPLEQPVAPEDKGVVISEEAATAAVQGAVAMAAPMAGLMEKAGKDGPPKSFRELKEAIKILESLKNMTVEQLLTGSPTSPTVEPEKPTREKKFLDDIKKLQENLKKTLDNVAIVEEEKMEAVPDVERKEDKPEGQSPVKAEWPSETPVLCQQCGGKPGVTFTSAKGEVFSVLEFAPSNHSFKKIEFQPPEAKKFFSTVRKEMALLATSLPEGIMVKTFEDRMDLFSALIKGPTRTPYEDGLYLFDIQLPNIYPAVPPHFCYLSQCSGRLNPNLYDNGKVCVSLLGTWIGKGTERWTSKSSLLQVLISIQGLILVNEPYYNEAGFDSDRGLQEGYENSRCYNEMALIRVVQSMTQLVRRPPEVFEQEIRQHFSTGGWRLVNRIESWLETHALLEKAQALPNGVPKASSSPEPPAVAELSDSGQQEPEDGGPAPGEASQGSDSEGGAQGLASASRDHTDQTSETAPDASVPPSVKPKKRRKSYRSFLPEKSGYPDIGFPLFPLSKGFIKSIRGVLTQFRAALLEAGMPECTEDK | binds | 
Flag-tagged UBE2O (enzyme, UniProt Q9C0C9 1-1292) MADPAAPTPAAPAPAQAPAPAPEAVPAPAAAPVPAPAPASDSASGPSSDSGPEAGSQRLLFSHDLVSGRYRGSVHFGLVRLIHGEDSDSEGEEEGRGSSGCSEAGGAGHEEGRASPLRRGYVRVQWYPEGVKQHVKETKLKLEDRSVVPRDVVRHMRSTDSQCGTVIDVNIDCAVKLIGTNCIIYPVNSKDLQHIWPFMYGDYIAYDCWLGKVYDLKNQIILKLSNGARCSMNTEDGAKLYDVCPHVSDSGLFFDDSYGFYPGQVLIGPAKIFSSVQWLSGVKPVLSTKSKFRVVVEEVQVVELKVTWITKSFCPGGTDSVSPPPSVITQENLGRVKRLGCFDHAQRQLGERCLYVFPAKVEPAKIAWECPEKNCAQGEGSMAKKVKRLLKKQVVRIMSCSPDTQCSRDHSMEDPDKKGESKTKSEAESASPEETPDGSASPVEMQDEGAEEPHEAGEQLPPFLLKEGRDDRLHSAEQDADDEAADDTDDTSSVTSSASSTTSSQSGSGTSRKKSIPLSIKNLKRKHKRKKNKITRDFKPGDRVAVEVVTTMTSADVMWQDGSVECNIRSNDLFPVHHLDNNEFCPGDFVVDKRVQSCPDPAVYGVVQSGDHIGRTCMVKWFKLRPSGDDVELIGEEEDVSVYDIADHPDFRFRTTDIVIRIGNTEDGAPHKEDEPSVGQVARVDVSSKVEVVWADNSKTIILPQHLYNIESEIEESDYDSVEGSTSGASSDEWEDDSDSWETDNGLVEDEHPKIEEPPIPPLEQPVAPEDKGVVISEEAATAAVQGAVAMAAPMAGLMEKAGKDGPPKSFRELKEAIKILESLKNMTVEQLLTGSPTSPTVEPEKPTREKKFLDDIKKLQENLKKTLDNVAIVEEEKMEAVPDVERKEDKPEGQSPVKAEWPSETPVLCQQCGGKPGVTFTSAKGEVFSVLEFAPSNHSFKKIEFQPPEAKKFFSTVRKEMALLATSLPEGIMVKTFEDRMDLFSALIKGPTRTPYEDGLYLFDIQLPNIYPAVPPHFCYLSQCSGRLNPNLYDNGKVCVSLLGTWIGKGTERWTSKSSLLQVLISIQGLILVNEPYYNEAGFDSDRGLQEGYENSRCYNEMALIRVVQSMTQLVRRPPEVFEQEIRQHFSTGGWRLVNRIESWLETHALLEKAQALPNGVPKASSSPEPPAVAELSDSGQQEPEDGGPAPGEASQGSDSEGGAQGLASASRDHTDQTSETAPDASVPPSVKPKKRRKSYRSFLPEKSGYPDIGFPLFPLSKGFIKSIRGVLTQFRAALLEAGMPECTEDK |  | binds
